Measured values: PMC3846882
No constants are given. Whether binding was seen depends on the method and setting. Binding seen in cells or lysates may run through a third protein. A yes stands for co-enrichment or nearness to the bait. Other partners may have been found. For some assays here: Where a sequence is shown, tags or fusion partners need not be part of it.

Amino acid sequences for entries named in this document (tags omitted).
UniProt P07814: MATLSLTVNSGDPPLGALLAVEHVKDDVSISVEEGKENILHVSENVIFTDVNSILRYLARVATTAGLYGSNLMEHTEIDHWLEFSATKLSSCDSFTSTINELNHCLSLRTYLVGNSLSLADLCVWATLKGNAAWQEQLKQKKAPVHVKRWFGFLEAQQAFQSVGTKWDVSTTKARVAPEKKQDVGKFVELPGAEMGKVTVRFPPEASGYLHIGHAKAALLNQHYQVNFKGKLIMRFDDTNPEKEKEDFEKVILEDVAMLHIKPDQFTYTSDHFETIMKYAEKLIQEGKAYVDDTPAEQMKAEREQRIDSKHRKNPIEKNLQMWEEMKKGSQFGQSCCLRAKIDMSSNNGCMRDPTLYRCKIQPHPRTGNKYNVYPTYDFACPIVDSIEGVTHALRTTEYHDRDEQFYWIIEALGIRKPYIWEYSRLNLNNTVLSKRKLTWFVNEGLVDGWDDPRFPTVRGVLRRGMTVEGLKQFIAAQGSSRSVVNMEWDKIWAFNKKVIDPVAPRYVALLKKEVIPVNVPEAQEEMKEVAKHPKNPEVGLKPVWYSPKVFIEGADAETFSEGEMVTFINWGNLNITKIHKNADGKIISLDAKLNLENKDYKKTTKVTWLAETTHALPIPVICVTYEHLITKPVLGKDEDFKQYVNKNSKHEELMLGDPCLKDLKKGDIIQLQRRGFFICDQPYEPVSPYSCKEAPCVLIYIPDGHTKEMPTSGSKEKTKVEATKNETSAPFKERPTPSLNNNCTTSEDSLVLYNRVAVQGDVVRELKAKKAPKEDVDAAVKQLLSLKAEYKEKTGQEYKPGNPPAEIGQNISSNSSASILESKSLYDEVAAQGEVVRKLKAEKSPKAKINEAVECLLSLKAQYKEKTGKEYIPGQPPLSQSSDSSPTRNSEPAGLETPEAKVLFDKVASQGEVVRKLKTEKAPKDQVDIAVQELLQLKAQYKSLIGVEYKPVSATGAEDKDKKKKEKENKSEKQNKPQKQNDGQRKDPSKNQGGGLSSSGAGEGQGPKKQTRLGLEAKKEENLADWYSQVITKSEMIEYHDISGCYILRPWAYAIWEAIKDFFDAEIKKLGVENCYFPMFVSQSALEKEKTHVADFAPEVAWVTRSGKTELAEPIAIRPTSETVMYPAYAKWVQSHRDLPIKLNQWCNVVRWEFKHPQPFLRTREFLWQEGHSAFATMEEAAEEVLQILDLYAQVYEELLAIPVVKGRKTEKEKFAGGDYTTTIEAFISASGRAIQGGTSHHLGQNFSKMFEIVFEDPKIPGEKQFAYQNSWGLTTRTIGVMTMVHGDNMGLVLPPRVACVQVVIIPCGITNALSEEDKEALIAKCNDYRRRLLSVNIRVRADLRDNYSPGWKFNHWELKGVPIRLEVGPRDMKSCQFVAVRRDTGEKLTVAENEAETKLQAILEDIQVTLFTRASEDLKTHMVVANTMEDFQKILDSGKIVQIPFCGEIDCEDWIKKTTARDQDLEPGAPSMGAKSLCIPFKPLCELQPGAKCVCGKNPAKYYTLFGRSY
UniProt Q9NVI1: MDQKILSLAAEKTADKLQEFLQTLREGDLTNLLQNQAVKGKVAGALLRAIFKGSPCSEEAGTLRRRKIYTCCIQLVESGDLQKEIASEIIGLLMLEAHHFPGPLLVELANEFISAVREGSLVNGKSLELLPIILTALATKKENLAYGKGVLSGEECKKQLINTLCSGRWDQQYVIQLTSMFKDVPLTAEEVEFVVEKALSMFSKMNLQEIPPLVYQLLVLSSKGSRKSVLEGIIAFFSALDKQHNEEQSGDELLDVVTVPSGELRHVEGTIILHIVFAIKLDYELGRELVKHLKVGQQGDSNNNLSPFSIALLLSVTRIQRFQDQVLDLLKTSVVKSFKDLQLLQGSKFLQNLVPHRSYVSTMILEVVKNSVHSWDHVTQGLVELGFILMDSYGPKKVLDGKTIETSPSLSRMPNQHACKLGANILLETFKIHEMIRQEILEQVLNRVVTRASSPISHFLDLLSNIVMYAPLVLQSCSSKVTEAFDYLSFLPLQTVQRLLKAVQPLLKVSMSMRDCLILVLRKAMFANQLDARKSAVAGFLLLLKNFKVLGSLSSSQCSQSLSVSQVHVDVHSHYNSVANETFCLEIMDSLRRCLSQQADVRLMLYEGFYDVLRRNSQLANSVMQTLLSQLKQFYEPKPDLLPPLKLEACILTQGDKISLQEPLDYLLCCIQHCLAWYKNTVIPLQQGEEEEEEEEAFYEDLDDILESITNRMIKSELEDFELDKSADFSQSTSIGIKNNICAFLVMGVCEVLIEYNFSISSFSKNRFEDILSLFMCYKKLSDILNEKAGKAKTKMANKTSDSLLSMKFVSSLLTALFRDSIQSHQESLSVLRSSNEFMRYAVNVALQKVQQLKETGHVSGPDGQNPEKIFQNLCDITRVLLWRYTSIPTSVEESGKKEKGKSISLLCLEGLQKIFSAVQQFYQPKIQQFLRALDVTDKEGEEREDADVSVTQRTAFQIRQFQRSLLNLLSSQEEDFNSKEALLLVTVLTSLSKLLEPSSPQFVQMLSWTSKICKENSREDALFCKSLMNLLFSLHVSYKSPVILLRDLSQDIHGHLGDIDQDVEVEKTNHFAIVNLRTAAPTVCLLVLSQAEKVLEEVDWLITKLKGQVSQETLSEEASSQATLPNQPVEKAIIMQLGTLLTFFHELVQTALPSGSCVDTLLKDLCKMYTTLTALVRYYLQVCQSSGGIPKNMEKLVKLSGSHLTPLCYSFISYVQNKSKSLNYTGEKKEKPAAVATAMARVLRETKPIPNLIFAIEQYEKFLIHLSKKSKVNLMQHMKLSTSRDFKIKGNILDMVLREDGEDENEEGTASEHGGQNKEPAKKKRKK
UniProt Q9BUF5: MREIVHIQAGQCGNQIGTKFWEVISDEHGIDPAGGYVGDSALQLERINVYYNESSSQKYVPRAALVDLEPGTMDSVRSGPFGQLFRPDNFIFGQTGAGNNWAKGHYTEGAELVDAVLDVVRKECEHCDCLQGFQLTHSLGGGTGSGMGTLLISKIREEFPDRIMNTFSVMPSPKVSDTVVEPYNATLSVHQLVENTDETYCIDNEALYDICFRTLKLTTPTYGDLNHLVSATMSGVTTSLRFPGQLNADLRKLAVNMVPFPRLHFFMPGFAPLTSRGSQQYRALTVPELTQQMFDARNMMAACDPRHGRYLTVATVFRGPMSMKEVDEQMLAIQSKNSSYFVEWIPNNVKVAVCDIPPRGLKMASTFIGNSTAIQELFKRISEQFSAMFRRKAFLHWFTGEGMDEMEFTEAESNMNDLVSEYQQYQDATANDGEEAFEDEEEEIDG
UniProt O95816: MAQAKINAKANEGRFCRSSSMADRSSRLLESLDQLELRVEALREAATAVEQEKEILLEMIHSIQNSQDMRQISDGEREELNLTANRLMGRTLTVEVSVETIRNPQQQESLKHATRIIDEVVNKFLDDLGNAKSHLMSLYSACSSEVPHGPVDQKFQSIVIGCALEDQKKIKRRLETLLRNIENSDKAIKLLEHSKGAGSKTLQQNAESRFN
UniProt Q13509: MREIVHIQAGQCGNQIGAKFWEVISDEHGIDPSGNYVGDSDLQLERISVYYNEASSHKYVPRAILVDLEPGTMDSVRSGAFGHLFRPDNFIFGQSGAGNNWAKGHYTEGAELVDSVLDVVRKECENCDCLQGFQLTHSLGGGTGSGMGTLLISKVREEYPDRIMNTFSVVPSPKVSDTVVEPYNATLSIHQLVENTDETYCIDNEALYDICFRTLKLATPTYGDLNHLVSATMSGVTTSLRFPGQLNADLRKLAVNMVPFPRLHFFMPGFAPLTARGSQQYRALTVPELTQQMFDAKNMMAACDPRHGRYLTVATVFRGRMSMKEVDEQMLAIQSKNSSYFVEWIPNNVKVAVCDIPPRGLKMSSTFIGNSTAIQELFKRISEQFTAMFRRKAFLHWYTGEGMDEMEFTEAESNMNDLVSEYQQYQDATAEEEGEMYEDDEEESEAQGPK
UniProt Q15046: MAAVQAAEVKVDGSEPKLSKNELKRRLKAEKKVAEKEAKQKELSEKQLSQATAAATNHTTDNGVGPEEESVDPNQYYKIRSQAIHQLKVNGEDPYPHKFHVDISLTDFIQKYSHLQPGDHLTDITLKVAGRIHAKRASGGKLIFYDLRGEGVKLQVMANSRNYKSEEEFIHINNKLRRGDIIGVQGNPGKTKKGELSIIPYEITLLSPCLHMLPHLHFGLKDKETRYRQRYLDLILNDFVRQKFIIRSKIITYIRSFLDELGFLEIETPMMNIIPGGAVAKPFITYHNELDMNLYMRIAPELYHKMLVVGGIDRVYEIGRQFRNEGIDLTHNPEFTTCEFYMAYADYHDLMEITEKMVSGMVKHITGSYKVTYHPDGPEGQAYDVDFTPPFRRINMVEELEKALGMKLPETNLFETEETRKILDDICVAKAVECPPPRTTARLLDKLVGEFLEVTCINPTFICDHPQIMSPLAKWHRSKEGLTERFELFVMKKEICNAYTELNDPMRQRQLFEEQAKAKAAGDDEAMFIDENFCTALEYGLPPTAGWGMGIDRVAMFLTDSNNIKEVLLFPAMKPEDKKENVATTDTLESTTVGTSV
UniProt P68104: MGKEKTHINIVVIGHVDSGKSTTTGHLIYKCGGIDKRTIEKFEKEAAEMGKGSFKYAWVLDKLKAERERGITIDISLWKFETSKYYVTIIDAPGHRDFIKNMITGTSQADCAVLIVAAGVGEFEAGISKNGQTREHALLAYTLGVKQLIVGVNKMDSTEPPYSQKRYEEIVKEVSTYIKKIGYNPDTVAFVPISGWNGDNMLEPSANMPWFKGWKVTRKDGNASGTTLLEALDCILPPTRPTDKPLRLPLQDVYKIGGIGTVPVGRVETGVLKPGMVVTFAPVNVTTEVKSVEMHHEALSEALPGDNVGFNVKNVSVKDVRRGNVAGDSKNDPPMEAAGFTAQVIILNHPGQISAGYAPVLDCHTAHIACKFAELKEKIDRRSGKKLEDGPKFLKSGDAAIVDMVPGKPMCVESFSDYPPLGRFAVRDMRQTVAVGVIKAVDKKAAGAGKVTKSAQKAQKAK
UniProt P09493: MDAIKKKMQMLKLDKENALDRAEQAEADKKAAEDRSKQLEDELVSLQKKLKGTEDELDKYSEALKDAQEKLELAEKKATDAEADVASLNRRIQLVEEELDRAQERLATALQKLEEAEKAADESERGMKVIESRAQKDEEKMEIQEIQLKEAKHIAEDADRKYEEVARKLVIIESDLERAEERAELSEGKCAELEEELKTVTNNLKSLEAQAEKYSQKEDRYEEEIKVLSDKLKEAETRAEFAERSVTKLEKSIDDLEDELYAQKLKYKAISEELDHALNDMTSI
UniProt P53396: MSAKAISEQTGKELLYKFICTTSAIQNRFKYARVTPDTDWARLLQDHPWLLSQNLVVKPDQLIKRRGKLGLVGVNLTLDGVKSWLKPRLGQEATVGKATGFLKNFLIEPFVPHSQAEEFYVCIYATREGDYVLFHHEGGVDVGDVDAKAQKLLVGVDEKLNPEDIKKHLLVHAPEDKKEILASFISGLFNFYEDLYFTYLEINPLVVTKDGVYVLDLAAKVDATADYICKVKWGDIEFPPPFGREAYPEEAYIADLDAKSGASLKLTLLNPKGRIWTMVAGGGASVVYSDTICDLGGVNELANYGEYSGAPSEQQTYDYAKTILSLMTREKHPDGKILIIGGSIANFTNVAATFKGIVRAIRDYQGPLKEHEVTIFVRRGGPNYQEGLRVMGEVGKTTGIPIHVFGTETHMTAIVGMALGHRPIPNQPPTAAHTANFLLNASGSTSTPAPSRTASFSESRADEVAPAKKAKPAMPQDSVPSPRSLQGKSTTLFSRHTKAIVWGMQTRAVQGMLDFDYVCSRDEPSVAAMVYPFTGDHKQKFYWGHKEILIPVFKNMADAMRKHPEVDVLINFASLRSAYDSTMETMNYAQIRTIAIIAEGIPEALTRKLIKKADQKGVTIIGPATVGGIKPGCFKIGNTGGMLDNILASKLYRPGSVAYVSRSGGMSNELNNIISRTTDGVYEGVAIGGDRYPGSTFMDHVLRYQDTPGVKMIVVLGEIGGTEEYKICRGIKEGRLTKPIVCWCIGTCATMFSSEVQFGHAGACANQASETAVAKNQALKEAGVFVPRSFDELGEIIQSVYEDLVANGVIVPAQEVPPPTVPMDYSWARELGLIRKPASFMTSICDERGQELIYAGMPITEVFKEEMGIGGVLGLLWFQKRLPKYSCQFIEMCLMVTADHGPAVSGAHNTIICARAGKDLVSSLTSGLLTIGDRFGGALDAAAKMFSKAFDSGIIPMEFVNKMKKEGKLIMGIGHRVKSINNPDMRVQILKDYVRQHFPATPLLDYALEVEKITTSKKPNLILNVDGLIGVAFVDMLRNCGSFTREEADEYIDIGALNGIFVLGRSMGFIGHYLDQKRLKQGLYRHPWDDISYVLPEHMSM

biological target: T1, S/FLAG/SBP tagged AIMP1 (UniProt Q12904); experiment: affinity purification with mass spectrometry; S/FLAG/SBP-tagged bait transiently expressed in HEK 293T and HCT-8 cells; 2 mg lysate protein in NETN buffer (20 mM Tris-HCl pH 7.4, 1 mM EDTA, 150 mM NaCl, 0.5% Nonidet P-40) on streptavidin agarose, 2 h, 4 °C; eluted with biotin; in-gel digestion, LC-MS/MS; SAINT probability 0.9 or above against a mock vector with the tag only; three biological replicates
T1 sequence: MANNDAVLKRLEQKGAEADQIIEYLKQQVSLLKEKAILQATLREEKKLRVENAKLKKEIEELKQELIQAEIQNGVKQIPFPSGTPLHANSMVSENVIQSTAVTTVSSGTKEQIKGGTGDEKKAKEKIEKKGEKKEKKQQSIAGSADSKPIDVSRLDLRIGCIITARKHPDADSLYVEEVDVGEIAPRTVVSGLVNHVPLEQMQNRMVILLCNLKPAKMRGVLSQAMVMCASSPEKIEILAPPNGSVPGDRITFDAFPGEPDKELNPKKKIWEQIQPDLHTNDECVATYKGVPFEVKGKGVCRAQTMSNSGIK

binding	Substance
binds	Bifunctional aminoacyl-tRNA synthetase (glutamyl-prolyl-tRNA synthetase) (from UniProt P07814 1-1512) (enzyme)

biological target: T2, S/FLAG/SBP tagged AIMP2 (UniProt Q13155); experiment: as above
T2 sequence: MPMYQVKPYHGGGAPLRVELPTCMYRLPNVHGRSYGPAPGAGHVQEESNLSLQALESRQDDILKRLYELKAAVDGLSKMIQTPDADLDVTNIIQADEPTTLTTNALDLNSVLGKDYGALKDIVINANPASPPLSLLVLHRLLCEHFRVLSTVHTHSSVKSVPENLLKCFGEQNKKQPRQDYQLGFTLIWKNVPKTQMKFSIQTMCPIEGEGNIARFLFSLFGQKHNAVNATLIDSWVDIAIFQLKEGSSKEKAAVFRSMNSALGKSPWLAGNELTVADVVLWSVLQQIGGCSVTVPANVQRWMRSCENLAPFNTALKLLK

binding	Substance
binds	ATP1A (human (endogenous in HEK 293T))
binds	Fanconi anemia complementation group I (from UniProt Q9NVI1 1-1328)
binds	TUBB2A (from UniProt Q13885 1-445)
binds	TUBB6 (from UniProt Q9BUF5 1-446)
binds	TUBBP5 (human (endogenous in HEK 293T or HCT-8))

Continued, substance first:

Substance	binding
BAG family molecular chaperone regulator 2 (from UniProt O95816 1-211)	binds
Bifunctional aminoacyl-tRNA synthetase (glutamyl-prolyl-tRNA synthetase) (from UniProt P07814 1-1512) (enzyme)	binds
DNAJA (human (endogenous in HEK 293T))	binds
HSP90AA1 (from UniProt P07900 1-732)	binds
HSP90AB1 (from UniProt P08238 1-724)	binds
TUBB2C (from UniProt P68371 1-445)	binds
TUBB3 (from UniProt Q13509 1-450)	binds
TUBB4 (from UniProt P04350 1-444)	binds

biological target: S/FLAG/SBP tagged KARS (UniProt Q15046); experiment: as above

binding	Substance
binds	elongation factor 1-alpha 1 (from UniProt P68104 1-462)
binds	signal transducers and activators of transcription 1 (from UniProt P42224 1-750)
binds	syntenin-1 (from UniProt O00560 1-298)
binds	tropomyosin alpha-1 chain (from UniProt P09493 1-284)

Continued, substance first:

Substance	binding
ATP citrate lyase (from UniProt P53396 1-1101) (enzyme)	binds
Bifunctional aminoacyl-tRNA synthetase (glutamyl-prolyl-tRNA synthetase) (from UniProt P07814 1-1512) (enzyme)	binds
